In the supplement of paper PMC10849652 one finds log2 fold change data, which are given here for 15 targets.

Chains of the proteins cited; added tags and fusions are not shown. Lines headed by an entry give the natural chain unless they say otherwise; changes in a name come on top.
UniProt Q14746: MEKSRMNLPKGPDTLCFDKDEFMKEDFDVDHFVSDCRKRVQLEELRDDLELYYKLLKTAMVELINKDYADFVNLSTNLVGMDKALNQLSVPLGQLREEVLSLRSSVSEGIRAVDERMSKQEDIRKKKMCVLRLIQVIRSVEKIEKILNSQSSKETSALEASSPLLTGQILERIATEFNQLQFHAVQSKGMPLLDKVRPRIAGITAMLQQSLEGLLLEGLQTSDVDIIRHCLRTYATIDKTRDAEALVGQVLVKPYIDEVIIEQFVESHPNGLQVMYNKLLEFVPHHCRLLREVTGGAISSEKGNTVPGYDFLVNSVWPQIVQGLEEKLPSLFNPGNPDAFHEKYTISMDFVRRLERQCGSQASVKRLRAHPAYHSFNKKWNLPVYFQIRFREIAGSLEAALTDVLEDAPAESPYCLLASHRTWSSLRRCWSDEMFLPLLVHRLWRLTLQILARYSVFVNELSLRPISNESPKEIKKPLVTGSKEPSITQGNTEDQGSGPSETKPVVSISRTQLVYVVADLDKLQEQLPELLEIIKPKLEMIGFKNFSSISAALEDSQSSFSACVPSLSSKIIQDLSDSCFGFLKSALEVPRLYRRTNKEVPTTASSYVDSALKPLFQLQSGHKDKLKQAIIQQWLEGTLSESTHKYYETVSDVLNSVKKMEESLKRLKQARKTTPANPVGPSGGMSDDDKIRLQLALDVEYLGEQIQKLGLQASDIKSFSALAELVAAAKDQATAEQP
UniProt Q9H9Q2: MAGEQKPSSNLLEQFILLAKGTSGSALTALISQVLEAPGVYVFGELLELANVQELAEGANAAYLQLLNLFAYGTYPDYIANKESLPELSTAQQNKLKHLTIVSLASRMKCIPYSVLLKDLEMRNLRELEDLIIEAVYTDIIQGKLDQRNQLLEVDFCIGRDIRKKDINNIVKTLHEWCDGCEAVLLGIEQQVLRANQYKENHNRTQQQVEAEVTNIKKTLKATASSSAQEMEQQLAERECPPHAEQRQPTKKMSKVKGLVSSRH
UniProt Q9P2I0: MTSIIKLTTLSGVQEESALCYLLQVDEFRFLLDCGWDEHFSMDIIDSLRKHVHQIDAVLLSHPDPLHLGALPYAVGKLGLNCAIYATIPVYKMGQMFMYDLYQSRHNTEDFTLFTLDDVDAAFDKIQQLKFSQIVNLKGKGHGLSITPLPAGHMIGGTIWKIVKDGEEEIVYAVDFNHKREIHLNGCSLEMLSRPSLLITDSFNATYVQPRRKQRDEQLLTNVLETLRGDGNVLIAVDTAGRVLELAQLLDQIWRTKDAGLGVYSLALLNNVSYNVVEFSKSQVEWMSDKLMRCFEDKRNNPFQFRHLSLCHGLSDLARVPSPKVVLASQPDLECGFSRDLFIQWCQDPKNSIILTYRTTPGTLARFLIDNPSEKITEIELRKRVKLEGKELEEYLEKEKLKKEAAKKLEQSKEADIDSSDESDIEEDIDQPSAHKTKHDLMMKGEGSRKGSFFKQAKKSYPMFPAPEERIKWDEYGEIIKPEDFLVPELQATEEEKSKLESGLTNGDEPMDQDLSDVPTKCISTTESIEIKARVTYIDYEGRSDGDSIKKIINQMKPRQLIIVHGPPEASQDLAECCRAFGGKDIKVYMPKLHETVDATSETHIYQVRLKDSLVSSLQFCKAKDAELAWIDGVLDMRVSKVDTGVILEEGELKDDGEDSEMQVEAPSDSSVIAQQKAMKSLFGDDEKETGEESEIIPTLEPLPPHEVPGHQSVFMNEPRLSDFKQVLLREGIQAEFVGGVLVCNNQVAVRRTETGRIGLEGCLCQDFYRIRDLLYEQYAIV
UniProt P61201: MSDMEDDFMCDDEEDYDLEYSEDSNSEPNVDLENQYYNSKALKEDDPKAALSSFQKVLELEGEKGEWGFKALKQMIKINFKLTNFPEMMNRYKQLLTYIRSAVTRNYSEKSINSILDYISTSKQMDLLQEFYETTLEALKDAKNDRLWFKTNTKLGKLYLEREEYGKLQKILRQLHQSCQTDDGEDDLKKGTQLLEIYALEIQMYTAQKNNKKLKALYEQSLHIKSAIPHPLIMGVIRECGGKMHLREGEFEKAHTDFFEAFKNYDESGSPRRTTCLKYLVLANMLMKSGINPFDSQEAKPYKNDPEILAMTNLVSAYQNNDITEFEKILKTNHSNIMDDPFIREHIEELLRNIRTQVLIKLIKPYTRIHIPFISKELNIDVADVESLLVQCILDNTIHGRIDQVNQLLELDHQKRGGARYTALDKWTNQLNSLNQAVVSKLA
UniProt P20674, whole entry, looked up: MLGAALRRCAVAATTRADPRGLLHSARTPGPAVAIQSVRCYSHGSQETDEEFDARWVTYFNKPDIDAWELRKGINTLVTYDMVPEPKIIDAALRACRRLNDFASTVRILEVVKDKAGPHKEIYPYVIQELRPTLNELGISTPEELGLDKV
UniProt Q9H9E3: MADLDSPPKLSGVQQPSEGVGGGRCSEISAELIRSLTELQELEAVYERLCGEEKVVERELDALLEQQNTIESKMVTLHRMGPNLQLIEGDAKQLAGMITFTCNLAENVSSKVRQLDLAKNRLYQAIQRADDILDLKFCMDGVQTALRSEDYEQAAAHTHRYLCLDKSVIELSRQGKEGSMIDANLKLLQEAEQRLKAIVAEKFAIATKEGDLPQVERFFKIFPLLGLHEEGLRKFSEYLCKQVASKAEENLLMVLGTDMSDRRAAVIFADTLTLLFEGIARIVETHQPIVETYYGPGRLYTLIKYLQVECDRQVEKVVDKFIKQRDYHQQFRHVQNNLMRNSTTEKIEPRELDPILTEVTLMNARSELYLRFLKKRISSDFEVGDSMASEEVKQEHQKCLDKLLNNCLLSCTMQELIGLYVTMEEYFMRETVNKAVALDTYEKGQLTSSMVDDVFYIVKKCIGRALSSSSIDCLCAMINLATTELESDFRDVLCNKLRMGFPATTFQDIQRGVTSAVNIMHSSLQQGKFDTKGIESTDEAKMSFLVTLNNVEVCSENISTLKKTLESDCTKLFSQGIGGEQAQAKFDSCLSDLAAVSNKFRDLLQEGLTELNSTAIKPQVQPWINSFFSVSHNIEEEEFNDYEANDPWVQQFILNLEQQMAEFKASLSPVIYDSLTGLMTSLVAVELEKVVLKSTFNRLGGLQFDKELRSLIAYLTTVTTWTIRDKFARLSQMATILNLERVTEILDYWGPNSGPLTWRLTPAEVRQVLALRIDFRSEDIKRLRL
UniProt O14548: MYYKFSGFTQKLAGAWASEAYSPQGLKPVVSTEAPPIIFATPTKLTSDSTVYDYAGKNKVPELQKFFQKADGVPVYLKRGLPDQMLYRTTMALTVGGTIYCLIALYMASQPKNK
UniProt Q8N668, whole entry, looked up: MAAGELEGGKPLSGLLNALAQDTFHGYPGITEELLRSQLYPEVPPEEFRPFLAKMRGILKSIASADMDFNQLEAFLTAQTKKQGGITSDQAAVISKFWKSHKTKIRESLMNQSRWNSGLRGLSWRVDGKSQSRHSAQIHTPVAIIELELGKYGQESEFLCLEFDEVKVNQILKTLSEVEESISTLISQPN
UniProt P14854, whole entry, looked up: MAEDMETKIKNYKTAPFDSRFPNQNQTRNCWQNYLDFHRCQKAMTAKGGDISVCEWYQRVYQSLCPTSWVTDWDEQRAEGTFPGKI
UniProt Q05707: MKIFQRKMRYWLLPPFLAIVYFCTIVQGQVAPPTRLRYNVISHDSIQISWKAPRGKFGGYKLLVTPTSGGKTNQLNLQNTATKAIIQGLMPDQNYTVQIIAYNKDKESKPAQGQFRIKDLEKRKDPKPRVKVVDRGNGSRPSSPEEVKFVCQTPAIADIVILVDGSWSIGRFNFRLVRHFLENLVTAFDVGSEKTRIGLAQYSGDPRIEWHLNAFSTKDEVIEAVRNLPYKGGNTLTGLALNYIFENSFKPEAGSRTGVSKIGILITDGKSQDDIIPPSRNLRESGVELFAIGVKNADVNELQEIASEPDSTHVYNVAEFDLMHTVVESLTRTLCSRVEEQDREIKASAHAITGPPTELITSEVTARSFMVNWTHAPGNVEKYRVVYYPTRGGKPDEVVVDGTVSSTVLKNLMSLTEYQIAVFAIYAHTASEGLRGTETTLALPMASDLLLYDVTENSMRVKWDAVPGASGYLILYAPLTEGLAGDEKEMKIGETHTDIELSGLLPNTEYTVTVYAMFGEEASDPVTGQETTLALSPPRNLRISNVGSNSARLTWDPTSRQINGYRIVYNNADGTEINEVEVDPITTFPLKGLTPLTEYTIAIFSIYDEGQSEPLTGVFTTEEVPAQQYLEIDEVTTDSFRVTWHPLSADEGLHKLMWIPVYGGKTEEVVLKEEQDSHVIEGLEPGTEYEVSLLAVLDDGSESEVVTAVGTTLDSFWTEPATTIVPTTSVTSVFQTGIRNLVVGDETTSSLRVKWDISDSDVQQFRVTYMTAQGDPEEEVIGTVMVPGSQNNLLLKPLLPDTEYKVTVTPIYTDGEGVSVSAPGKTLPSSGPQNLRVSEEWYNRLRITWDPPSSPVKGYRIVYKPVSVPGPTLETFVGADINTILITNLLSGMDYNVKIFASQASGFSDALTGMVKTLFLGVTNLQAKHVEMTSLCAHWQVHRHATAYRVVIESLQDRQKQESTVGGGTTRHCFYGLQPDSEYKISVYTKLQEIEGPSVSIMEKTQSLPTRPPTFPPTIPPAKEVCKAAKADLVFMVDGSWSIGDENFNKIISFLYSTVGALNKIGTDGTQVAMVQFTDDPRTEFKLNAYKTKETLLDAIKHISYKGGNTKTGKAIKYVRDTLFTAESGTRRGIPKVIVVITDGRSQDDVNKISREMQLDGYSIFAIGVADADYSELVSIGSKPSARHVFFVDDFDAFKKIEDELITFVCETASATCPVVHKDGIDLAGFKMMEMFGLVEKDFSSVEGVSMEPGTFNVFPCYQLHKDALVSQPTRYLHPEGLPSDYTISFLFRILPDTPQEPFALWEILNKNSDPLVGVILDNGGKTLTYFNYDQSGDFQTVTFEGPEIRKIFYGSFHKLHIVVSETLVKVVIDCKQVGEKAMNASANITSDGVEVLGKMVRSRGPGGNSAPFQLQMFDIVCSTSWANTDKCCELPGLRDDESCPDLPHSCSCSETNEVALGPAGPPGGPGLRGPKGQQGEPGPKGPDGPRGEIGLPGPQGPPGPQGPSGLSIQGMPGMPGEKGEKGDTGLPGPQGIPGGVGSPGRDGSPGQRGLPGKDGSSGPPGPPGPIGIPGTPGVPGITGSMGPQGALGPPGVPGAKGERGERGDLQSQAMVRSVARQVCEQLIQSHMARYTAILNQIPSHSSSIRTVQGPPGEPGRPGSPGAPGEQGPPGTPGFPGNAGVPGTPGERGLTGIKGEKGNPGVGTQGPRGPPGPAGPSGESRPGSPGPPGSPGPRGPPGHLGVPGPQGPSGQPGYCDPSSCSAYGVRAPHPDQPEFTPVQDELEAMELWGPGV
UniProt O75131: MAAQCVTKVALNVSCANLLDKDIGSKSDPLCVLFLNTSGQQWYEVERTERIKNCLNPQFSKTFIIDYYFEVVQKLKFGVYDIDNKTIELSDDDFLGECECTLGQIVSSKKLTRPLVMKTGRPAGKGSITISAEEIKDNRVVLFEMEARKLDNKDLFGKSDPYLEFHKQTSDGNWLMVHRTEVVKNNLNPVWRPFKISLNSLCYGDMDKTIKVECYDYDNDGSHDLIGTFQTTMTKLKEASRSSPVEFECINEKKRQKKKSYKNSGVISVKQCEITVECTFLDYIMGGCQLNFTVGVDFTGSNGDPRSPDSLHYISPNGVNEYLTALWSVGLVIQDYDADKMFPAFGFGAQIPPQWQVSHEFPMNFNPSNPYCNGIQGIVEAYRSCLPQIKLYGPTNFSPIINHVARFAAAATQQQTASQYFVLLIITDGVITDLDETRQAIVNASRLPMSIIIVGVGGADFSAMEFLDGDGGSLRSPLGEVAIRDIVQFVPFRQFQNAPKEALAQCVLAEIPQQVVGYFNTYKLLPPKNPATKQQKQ
UniProt Q8NE35: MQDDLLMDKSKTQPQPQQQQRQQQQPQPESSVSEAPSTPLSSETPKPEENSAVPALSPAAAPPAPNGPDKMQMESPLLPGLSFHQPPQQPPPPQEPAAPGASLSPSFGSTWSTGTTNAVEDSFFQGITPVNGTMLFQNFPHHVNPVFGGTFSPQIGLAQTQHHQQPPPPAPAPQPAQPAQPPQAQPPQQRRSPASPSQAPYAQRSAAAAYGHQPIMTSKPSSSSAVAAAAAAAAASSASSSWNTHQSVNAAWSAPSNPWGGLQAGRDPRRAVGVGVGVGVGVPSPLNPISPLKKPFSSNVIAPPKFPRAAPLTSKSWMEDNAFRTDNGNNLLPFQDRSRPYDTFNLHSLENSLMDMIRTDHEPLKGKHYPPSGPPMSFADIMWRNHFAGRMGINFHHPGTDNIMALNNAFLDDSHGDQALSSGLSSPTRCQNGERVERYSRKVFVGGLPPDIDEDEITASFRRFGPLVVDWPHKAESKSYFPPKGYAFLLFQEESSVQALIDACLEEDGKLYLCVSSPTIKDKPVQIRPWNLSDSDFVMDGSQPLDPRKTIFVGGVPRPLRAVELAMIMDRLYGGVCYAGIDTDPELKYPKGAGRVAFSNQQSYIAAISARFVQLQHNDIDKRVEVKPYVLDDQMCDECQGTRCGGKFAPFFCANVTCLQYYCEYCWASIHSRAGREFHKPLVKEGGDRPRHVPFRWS

The list shows a part of the results.

Test in all cases: log2 fold change, soluble protein after heating vs DMSO (PISA); higher = thermal stabilisation; K562 lysate, 10 uM; active = over 0.2 and 3.5 SD of the protein, either way, in both replicates (recomputed)
Compound in one test: C=CC(=O)N1CCC[C@@H](n2nc(-c3ccc(Oc4ccccc4)cc3)c3c(N)ncnc32)C1 [ibrutinib]
The procedure, abridged:
(§1)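 Quantification was by TMTpro 16plex LC-MS/MS with equalised channel sums, applied to the supernatant after 21,000xg for 90 min. Samples were crude K562 extract at 1 mg/mL protein in PBS pH 7.4 with 1 mM MgCl2, treated with 10 μM compound for 30 min, heated for 3 min across 48°C-58°C, pooled and brought to 0.5% NP-40 at 4°C. Values are log-two fold changes in thermal stability relative to solvent controls, from duplicates.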

Compound in test [1]: CC(=O)c1cnc2ccc(-c3cc(Cl)c(O)c(Cl)c3)nc2c1N[C@H]1CC[C@H](CN(C)C)CC1
The gist of the method:
as §1

Compound in a further test: CC(C)(C)Cn1c(N)nc2ccc(-c3[nH]c(C(C)(C)C)nc3-c3ccc(F)cc3)nc21 [ralimetinib]
The procedure, abridged: as §1

Compound in test [2]: CC(C)(O)CC(=O)NCCn1ccc2ncnc(Nc3ccc(Oc4cccc(C(F)(F)F)c4)c(Cl)c3)c21
The procedure, abridged:
as §1

Compound in test [3]: CC(C)C1=C2N=C(C=C(N2N=C1)NCC3=CC=CC=C3)NCCCCCCN
The gist of the method: as §1

Compound in test [4]: CC1=C(C(CC(=O)N1)C2=CC=C(C=C2)C(F)(F)F)C(=O)NC3=C(C=C4C(=C3)C=NN4)F
The gist of the method: as §1

Compound in test [5]: CC1=C(C2=C(C=C1)C(=O)C3=CC=CC=C3N2CCCN)C
The gist of the method:
as §1

Compound in test [6]: CC1=C(C=C(C=C1)NC(=O)C2=CC(=CC=C2)C(C)(C)C#N)NC3=CC4=C(C=C3)N=CN(C4=O)C
The procedure, abridged: as §1

Compound in test [7]: CC1=C(C=C(C=C1)NC(=O)C2=CC(=CC=C2)N(C)C)NC(=O)C3=CC=C(C=C3)O
The gist of the method:
as §1

Compound in test [8]: CC1=CC=C(C=C1)SC2=C3C=C(SC3=CN=C2)C(=O)N
The gist of the method: as §1

COG5 isoform 2 (UniProt Q9UP83): the log2 fold change with ibrutinib is inactive: 0.061; in test [1], inactive: -0.036; with ralimetinib it was inactive: 0.074; in test [2] it was inactive: -0.027; in test [3] it was inactive: 0.037; in test [4] it was inactive: -0.005. The log2 fold change is inactive: 0.04 in test [5], inactive: -0.016 in test [6], inactive: 0.073 in test [7] and inactive: 0.052 in test [8].

Consider COG2 (UniProt Q14746), for which the log2 fold change with ibrutinib is inactive: -0.029; in [1], inactive: -0.023; in the test with ralimetinib, inactive: 0.017; in [2], inactive: -0.017; in test [3] it was inactive: 0; in [4], inactive: 0.023. In addition, the log2 fold change was inactive: -0.035 in test [5], inactive: -0.019 in test [6], inactive: 0.062 in test [7] and inactive: -0.009 in test [8].

On to COPS7B isoform 3 (UniProt Q9H9Q2), for which the log2 fold change is inactive: 0.002 in the test with ibrutinib; inactive: -0.039 in [1]; inactive: -0.009 with ralimetinib; inactive: -0.032 in test [2]; inactive: -0.013 in test [3]; inactive: -0.007 in [4]. For the same target, the log2 fold change is inactive: 0.017 in [5], inactive: 0.032 in test [6], inactive: -0.016 in [7] and inactive: -0.051 in test [8].

Consider CNOT8 (UniProt Q9UFF9), for which the log2 fold change with ibrutinib is inactive: -0.006; in test [1], inactive: -0.01; with ralimetinib it was inactive: 0.013; in test [2] it was inactive: 0.033; in test [3] it was inactive: -0.038; in [4], inactive: 0.002. For the same target, the log2 fold change in [5] was inactive: -0.012; in test [6] it was inactive: 0.022; in [7], inactive: -0.001; in test [8], inactive: 0.03.

CPSF2 (UniProt Q9P2I0): the log2 fold change in the test with ibrutinib was inactive: 0.011; in test [1], inactive: -0.012; with ralimetinib, inactive: -0.022; in test [2], inactive: 0.086; in [3], inactive: -0.006; in [4] it was inactive: 0.045. For the same target, the log2 fold change is inactive: -0.001 in test [5], inactive: -0.026 in test [6], inactive: 0.025 in test [7] and inactive: 0.013 in test [8].

Regarding COPS2 isoform 2 (UniProt P61201), the log2 fold change with ibrutinib is inactive: -0.015; in test [1], inactive: -0.016; with ralimetinib it was inactive: 0.012; in test [2] it was inactive: 0.014; in test [3], inactive: -0.019; in [4], inactive: -0.011. Also, the log2 fold change in test [5] is inactive: 0; in test [6], inactive: -0.024; in [7], inactive: 0.007; in test [8], inactive: 0.02.

As to COX5A (UniProt P20674), the log2 fold change with ibrutinib was inactive: 0.032; in test [1] it was inactive: -0.05; in the test with ralimetinib, inactive: -0.007; in test [2], inactive: 0.002; in test [3], inactive: -0.042; in test [4], inactive: 0.035. In addition, the log2 fold change in test [5] is inactive: 0.024; in [6], inactive: 0.032; in test [7], inactive: -0.011; in test [8] it was inactive: 0.037.

On to COG4 (UniProt Q9H9E3), for which the log2 fold change with ibrutinib was inactive: 0.014; in [1], inactive: 0.005; with ralimetinib it was inactive: -0.007; in test [2] it was inactive: -0.042; in [3], inactive: -0.029; in test [4], inactive: 0. The log2 fold change was inactive: -0.001 in [5], inactive: -0.049 in test [6], inactive: -0.033 in test [7] and inactive: 0 in test [8].

For COX7A2L (UniProt O14548), the log2 fold change in the test with ibrutinib was inactive: 0.098; in test [1], inactive: -0.036; with ralimetinib, inactive: 0.003; in test [2] it was inactive: -0.069; in test [3], inactive: -0.056; in [4], inactive: -0.043. For the same target, the log2 fold change in test [5] was inactive: 0.009; in test [6], inactive: 0.104; in test [7] it was inactive: 0.021; in test [8] it was inactive: 0.021.

Regarding COMMD1 (UniProt Q8N668), the log2 fold change with ibrutinib was inactive: -0.118; in test [1], inactive: 0.025; with ralimetinib, inactive: 0.018; in test [2], inactive: -0.05; in test [3], inactive: 0.003; in test [4], inactive: 0.058. In addition, the log2 fold change in test [5] is inactive: -0.025; in test [6] it was inactive: -0.018; in test [7] it was inactive: -0.002; in [8] it was inactive: -0.024.

Regarding CNOT4 isoform 6 (UniProt O95628), the log2 fold change with ibrutinib was inactive: -0.004; in test [1] it was inactive: 0.021; with ralimetinib, inactive: 0.033; in test [2], inactive: -0.007; in test [3], inactive: -0.003; in test [4], inactive: 0.049. Also, the log2 fold change is inactive: 0.037 in [5], active: -0.281 in test [6], inactive: -0.026 in test [7] and inactive: 0.012 in [8].

Turning to COX6B1 (UniProt P14854), the log2 fold change in the test with ibrutinib is inactive: 0.07; in test [1], inactive: -0.068; in the test with ralimetinib, inactive: -0.007; in test [2] it was inactive: -0.108; in [3] it was inactive: 0.018; in test [4] it was inactive: 0.015. Also, the log2 fold change was inactive: -0.061 in test [5], inactive: 0.034 in test [6], inactive: 0.024 in test [7] and inactive: -0.009 in [8].

Turning to COL14A1 (UniProt Q05707), the log2 fold change with ibrutinib is inactive: -0.127; in test [1], inactive: -0.023; with ralimetinib, inactive: -0.118; in [2], inactive: -0.123; in test [3], inactive: 0.029; in [4], inactive: -0.092. Besides, the log2 fold change in [5] was inactive: 0.033; in test [6], inactive: 0.024; in [7], inactive: 0.05; in [8], inactive: -0.021.

Regarding CPNE3 (UniProt O75131), the log2 fold change in the test with ibrutinib was inactive: -0.046; in test [1], inactive: -0.01; in the test with ralimetinib, inactive: -0.017; in test [2], inactive: 0.004; in test [3], inactive: 0.024; in test [4], inactive: 0.01. Further, the log2 fold change in [5] is inactive: -0.02; in [6], inactive: -0.005; in [7], inactive: 0.015; in test [8], inactive: 0.008.

In the case of CPEB3 (UniProt Q8NE35), the log2 fold change in the test with ralimetinib is inactive: -0.027; in test [2], inactive: -0.141; in test [3] it was inactive: 0.066; in test [6] it was inactive: -0.075; in test [7], inactive: 0.073.
